# Reference: PubChem BioAssay (NCATS)
# By UniProt entry, the sequences of proteins in these tests, tags left out. Residues count along the entry.
# UniProt Q27686, 2-499 E452W: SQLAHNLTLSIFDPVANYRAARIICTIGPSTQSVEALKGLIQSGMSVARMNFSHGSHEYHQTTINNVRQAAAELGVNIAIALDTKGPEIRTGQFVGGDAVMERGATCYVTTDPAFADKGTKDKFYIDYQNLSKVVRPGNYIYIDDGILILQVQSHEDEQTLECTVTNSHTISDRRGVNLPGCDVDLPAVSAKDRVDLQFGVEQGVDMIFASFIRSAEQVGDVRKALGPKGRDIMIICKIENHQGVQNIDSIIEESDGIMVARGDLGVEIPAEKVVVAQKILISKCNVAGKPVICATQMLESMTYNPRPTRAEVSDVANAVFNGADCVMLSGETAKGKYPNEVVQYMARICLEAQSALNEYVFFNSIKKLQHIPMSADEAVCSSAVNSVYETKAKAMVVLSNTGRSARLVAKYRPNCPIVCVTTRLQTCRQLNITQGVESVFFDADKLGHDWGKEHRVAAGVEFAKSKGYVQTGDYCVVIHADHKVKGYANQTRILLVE
# UniProt P14618, whole entry, looked up: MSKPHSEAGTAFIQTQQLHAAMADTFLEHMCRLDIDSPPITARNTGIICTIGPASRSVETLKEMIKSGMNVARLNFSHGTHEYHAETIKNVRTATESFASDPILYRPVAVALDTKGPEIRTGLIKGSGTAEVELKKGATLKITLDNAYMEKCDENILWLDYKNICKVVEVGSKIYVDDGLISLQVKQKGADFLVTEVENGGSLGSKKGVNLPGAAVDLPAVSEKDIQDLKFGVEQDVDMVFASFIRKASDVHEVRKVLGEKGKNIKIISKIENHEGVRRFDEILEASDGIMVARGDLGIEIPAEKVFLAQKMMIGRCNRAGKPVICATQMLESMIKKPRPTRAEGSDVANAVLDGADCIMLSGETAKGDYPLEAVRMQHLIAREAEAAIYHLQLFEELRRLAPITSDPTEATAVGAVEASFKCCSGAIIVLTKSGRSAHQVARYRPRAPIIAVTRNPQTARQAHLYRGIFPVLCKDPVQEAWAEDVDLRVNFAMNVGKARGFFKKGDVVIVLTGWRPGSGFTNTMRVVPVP
# The shares of active, inactive and inconclusive entries below differ from those in the screen. For some assays here: Potencies of inconclusive entries are doubtful fits and often do not repeat. Calls of active or inactive are those of the source. Unless noted, the call rests on the fitted dose curve; in most records, active means well fitted curve in the direction sought with a large enough effect; inconclusive means small, poorly fitted or top-dose-only effect, or another doubt; inactive means no such curve, though single readings can be large; an effect the other way counts as inactive or inconclusive.
# How the values were obtained:
# [1] = target: Pyruvate kinase (Leishmania mexicana) (UniProt Q27686); assay: qHTS Validation Assay for Inhibitors of Leishmania Mexicana Pyruvate Kinase (AID 945); further: potency means the concentration at half of the fitted maximal effect; conditions: purified L. mexicana pyruvate kinase, enzyme activity, E451W mutant enzyme; series mostly up to 57.5 µM
# Procedure, shortened: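 Pyruvate kinase activity of E451W LmPYK (0.2 nM) was followed as ATP output after 1 h at room temperature with 0.5 mM PEP and 0.1 mM ADP, detected by PKLight luminescence.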
# [2] = target: Pyruvate kinase PKM (Homo sapiens) (UniProt P14618); assay: qHTS Assay for Inhibitors of Human Muscle Pyruvate Kinase (AID 958); conditions: purified human PKM enzyme activity
# Procedure, shortened: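 Enzyme was run at intermediate activity so both inhibitors and activators could be detected. ATP formed from ADP and PEP by 0.1 nM human PKM2 during a 1 h room-temperature incubation was quantified by coupled luciferase luminescence.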
# [3] = MultiTox-Fluor Cytotoxicity Assay - LYMP1-001 - Live Cells (AID 947); conditions: LYMP1-001 lymphoblastoid cells, live-cell protease fluorescence viability; series mostly up to 92.2 µM; further: potency means the concentration at half of the fitted maximal effect
# [4] = MultiTox-Fluor Cytotoxicity Assay - LYMP1-001 - Dead Cells (AID 946); conditions: LYMP1-001 lymphoblastoid cells, dead-cell protease fluorescence; series mostly up to 92.2 µM; further: potency means the concentration at half of the fitted maximal effect
# Procedure, shortened: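 LYMP1-001 lymphoblastoid cells (2500/well) treated 16 h at 37 C. Dead-cell protease cleavage of bis-AAF-R110 read at Ex/Em 485/520. Normalized to DMSO and 15 uM tetraoctylammonium bromide; AC50 from Hill fits.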
# [5] = MultiTox-Fluor Cytotoxicity Assay - LYMP1-002 - Live Cells (AID 955); conditions: LYMP1-002 lymphoblastoid live-cell protease fluorescence viability; further: potency means the concentration at half of the fitted maximal effect
# Procedure, shortened: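 Human lymphoblastoid LYMP1-002 cells, 2500/well in complete medium, rested 5 hr at 37 C, then exposed to compounds for 16 hr at 37 C. Live-cell protease cleavage of GF-AFC read by fluorescence (Ex/Em 405/510) after 60 min at room temperature; AC50 from Hill fits.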
# [6] = MultiTox-Fluor Cytotoxicity Assay - LYMP1-003 - Live Cells (AID 962); conditions: LYMP1-003 lymphoblastoid cells, MultiTox-Fluor live-cell protease fluorescence; further: potency means the concentration at half of the fitted maximal effect
# Procedure, shortened: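 LYMP1-003 human lymphoblastoid cells (2500/well) in complete medium were preincubated 5 hr at 37 C, then exposed to compounds for 16 hr at 37 C. Live-cell protease cleavage of GF-AFC read by fluorescence (Ex/Em 405/510); AC50 from Hill fits.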
# [7] = Cell Viability - LYMP1-002 - Assay at 16 hr (AID 948); conditions: LYMP1-002 lymphoblastoid cell viability; series mostly up to 92.2 µM; further: potency means the concentration at half of the fitted maximal effect
# Procedure, shortened: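 Human lymphoblastoid cells (LYMP1-002), 2500/well, were preincubated 5 hr at 37 C, then exposed to compounds for 16 hr at 37 C in complete medium. Cellular ATP was read by CellTiter-Glo luminescence after 30 min at room temperature; AC50 from Hill fits.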
# [8] = MultiTox-Fluor Cytotoxicity Assay - LYMP1-003 - Dead Cells (AID 961); conditions: LYMP1-003 lymphoblastoid cells, dead-cell protease fluorescence; series mostly up to 92.2 µM; further: nearly all actives have a fitted effect of over 70% in size; further: potency means the concentration at half of the fitted maximal effect
# Procedure, shortened: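 LYMP1-003 human lymphoblastoid cells (2500/well) exposed to compound 16 h at 37 C in complete medium; dead-cell protease read with bis-AAF-R110 fluorescence (Ex/Em 485/520) after 60 min at room temperature. Normalized to DMSO and 15 uM tetraoctylammonium bromide; AC50 from Hill fit.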
# [9] = target: Pyruvate kinase PKM (Homo sapiens) (UniProt P14618); assay: qHTS Assay for Activators of Human Muscle Pyruvate Kinase (AID 954; active means well fitted curve in the direction sought with a large enough effect, not every such curve was filed as active; inconclusive means small, poorly fitted or top-dose-only effect, or effect the other way, or another doubt; inactive means no such curve, though single readings can be large or run the other way;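 further: 0% = uninhibited enzyme and -100% = no enzyme or full thiadiazolimine inhibition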); conditions: purified human muscle pyruvate kinase, luciferase-coupled luminescence, 1 h; at 57.5 µM (top of the series)
# Procedure, shortened: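 Purified human PKM2 (0.1 nM) with 0.5 mM PEP (Km) and 0.1 mM ADP in 50 mM imidazole pH 7.2, KCl, MgCl2, 1 h at room temperature; ATP formed read by coupled luciferase luminescence. Normalized to no-enzyme/110 uM thiadiazolimine inhibition; 0.3 nM enzyme column for activation.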
smiles,measurement,setting,value
CN1CCc2cc(NC(=O)Nc3cccnc3)ccc21,Potency,[1],active: 20 µM
same,Potency,[2],"inconclusive: 5.01 µM [inhibitor, partial curve]"
NC(=O)N/N=C/c1ccc([N+](=O)[O-])o1,Potency,[3],inactive
Oc1ccc(O)cc1,Potency,[4],"inconclusive: 0.794 µM [cytotoxic, partial curve, poor fit]"
same,Potency,[3],"inconclusive: 31.6 µM [cytotoxic, full curve, poor fit]"
same,Potency,[5],"inconclusive: 25.1 µM [cytotoxic, partial curve]"
same,Potency,[6],active: 50.1 µM
Nc1nc2ccc(OC(F)(F)F)cc2s1,Potency,[1],"inconclusive: 20 µM [inhibitor, partial curve]"
same,Potency,[2],"inconclusive: 25.1 µM [inhibitor, partial curve]"
N#C/C(=C\c1ccc(O)c(O)c1)C(=O)Nc1ccccc1,Potency,[1],"inconclusive: 25.1 µM [inhibitor, partial curve]"
same,Potency,[2],active: 25.1 µM
O=C1CN(/N=C/c2ccc([N+](=O)[O-])o2)C(=O)N1,Potency,[3],"inconclusive: 15.8 µM [cytotoxic, partial curve]"
same,Potency,[6],"inconclusive: 39.8 µM [cytotoxic, partial curve, poor fit]"
c1cnc2c(c1)ccc1cccnc12,Potency,[4],"inconclusive: 15.8 µM [cytotoxic, full curve, poor fit]"
same,Potency,[3],"inconclusive: 15.8 µM [cytotoxic, full curve]"
same,Potency,[7],"inconclusive: 39.8 µM [cytotoxic, partial curve]"
same,Potency,[6],"inconclusive: 12.6 µM [cytotoxic, partial curve]"
O=c1cc(-c2ccc(O)cc2)oc2cc(O)cc(O)c12,Potency,[1],active: 12.6 µM
same,Potency,[4],active: 79.4 µM
same,Potency,[3],"inconclusive: 39.8 µM [cytotoxic, single point]"
same,Potency,[7],"inconclusive: 79.4 µM [cytotoxic, single point]"
same,Potency,[5],"inconclusive: 25.1 µM [cytotoxic, single point]"
same,Potency,[2],"inconclusive: 3.16 µM [inhibitor, partial curve]"
same,Potency,[8],"inconclusive: 63.1 µM [cytotoxic, single point]"
NNc1nncc2ccccc12,Potency,[1],"inconclusive: 2 µM [inhibitor, full curve]"
same,Potency,[2],active: 7.94 µM
Cc1ccc(O)c(N=Nc2ccccc2)n1,Potency,[1],active: 6.31 µM
same,Potency,[2],active: 6.31 µM
CN(C)c1ccc(C(=C2C=CC(=[N+](C)C)C=C2)c2ccccc2)cc1,Potency,[3],active: 1 µM
same,Potency,[5],active: 1.58 µM
same,Potency,[6],active: 2 µM
CN(C)c1ccc2nc3ccc(=[N+](C)C)cc-3sc2c1,Potency,[3],active: 10 µM
same,Potency,[6],active: 7.94 µM
CC(C)(C)c1ccc(O)c(O)c1,Potency,[7],"inconclusive: 79.4 µM [cytotoxic, single point]"
same,Potency,[8],"inconclusive: 63.1 µM [cytotoxic, single point]"
Cc1ccnc2c1NC(=O)c1cccnc1N2C1CC1,Potency,[7],inactive
NCCCNCCSP(=O)(O)O,"activity change, negative = inhibition",[9],inactive: -9.4%
CCCCCCCCCCCCCCCCCC(=O)O,Potency,[8],inactive

# In another format: results already given
smiles | measurement | setting | value
O=c1cc(-c2ccc(O)cc2)oc2cc(O)cc(O)c12 | Potency | [2] | inconclusive: 3.16 µM [inhibitor, partial curve]
same | Potency | [8] | inconclusive: 63.1 µM [cytotoxic, single point]
NNc1nncc2ccccc12 | Potency | [1] | inconclusive: 2 µM [inhibitor, full curve]
same | Potency | [2] | active: 7.94 µM
Cc1ccc(O)c(N=Nc2ccccc2)n1 | Potency | [1] | active: 6.31 µM
same | Potency | [2] | active: 6.31 µM
CN(C)c1ccc(C(=C2C=CC(=[N+](C)C)C=C2)c2ccccc2)cc1 | Potency | [3] | active: 1 µM
same | Potency | [5] | active: 1.58 µM
